From PMC9513469
Where two headings read alike, the source gives them in different places. No constants are given. Whether binding was seen depends on the method and setting. In cells and extracts the contact can be indirect. These calls come from enrichment with a bait or labelling near it, and not all partners need be listed.

The chains behind the UniProt entries cited, without tags or fusion partners.
UniProt Q94BT6: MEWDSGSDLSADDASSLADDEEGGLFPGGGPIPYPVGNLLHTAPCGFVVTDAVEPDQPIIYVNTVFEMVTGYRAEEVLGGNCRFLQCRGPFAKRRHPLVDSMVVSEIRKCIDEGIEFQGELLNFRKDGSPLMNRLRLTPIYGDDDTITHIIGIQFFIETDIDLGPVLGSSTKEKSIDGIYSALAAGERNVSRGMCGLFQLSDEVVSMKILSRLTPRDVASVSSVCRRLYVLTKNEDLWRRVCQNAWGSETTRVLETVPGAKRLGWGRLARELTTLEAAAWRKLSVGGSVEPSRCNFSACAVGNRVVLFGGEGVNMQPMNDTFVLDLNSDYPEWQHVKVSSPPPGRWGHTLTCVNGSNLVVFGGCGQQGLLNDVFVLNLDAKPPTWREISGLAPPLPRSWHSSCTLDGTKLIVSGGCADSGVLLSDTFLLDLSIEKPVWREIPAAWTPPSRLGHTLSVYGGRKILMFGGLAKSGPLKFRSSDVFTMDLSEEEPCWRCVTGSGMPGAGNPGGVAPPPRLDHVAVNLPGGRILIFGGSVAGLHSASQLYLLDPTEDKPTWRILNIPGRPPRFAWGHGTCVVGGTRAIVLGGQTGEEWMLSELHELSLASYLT
UniProt Q9SQI2: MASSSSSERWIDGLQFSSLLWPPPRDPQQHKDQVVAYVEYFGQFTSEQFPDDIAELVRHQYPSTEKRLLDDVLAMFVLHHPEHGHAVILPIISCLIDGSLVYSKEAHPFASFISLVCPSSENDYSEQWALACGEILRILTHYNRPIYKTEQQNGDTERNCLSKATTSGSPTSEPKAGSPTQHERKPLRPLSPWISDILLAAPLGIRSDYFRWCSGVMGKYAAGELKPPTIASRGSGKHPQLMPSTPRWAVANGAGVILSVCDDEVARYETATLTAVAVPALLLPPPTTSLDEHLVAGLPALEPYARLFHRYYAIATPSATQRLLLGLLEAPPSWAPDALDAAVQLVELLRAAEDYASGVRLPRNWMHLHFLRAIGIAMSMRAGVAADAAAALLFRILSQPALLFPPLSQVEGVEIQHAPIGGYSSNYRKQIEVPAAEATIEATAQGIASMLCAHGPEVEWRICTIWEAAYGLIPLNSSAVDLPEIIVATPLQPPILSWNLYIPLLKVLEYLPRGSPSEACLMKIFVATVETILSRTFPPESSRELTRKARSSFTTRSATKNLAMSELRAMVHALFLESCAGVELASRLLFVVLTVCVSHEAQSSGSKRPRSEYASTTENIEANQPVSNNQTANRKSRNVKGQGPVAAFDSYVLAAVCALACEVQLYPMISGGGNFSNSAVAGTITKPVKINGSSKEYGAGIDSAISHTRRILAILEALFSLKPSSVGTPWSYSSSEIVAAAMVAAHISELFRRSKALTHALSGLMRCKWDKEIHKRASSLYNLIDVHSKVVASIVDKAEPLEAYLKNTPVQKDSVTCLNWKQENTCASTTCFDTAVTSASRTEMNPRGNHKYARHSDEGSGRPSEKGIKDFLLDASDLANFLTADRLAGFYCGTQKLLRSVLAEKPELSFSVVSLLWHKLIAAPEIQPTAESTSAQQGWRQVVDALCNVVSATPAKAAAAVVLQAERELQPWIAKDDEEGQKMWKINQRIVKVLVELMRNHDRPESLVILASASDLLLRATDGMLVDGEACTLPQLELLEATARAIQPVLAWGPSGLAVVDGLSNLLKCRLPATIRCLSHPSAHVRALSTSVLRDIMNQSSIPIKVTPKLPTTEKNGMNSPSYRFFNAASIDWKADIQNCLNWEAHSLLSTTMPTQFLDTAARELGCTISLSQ

Legend:
[1] = target: ZTL with a YFP tag at the C-terminus, in ZTL-overexpressing plants (ZTL-ox) (Arabidopsis thaliana) (UniProt Q94BT6); assay: affinity purification with mass spectrometry; IP-MS with an anti-GFP antibody in ZTL-overexpressing plants (ZTL-YFP)
[2] = target: ZTL with a YFP tag at the C-terminus, in ZTL-overexpressing plants (ZTL-ox) (Arabidopsis thaliana) (UniProt Q94BT6); assay: as above; remark: listed apart in the source

Molecule	binding [1]	binding [2]
GIGANTEA (GI) (from UniProt Q9SQI2 1-1173)	binds	–
SnRK2.2 (protein, UniProt Q39192 1-362) MDPATNSPIMPIDLPIMHDSDRYDFVKDIGSGNFGVARLMTDRVTKELVAVKYIERGEKIDENVQREIINHRSLRHPNIVRFKEVILTPSHLAIVMEYAAGGELYERICNAGRFSEDEARFFFQQLISGVSYCHAMQICHRDLKLENTLLDGSPAPRLKICDFGYSKSSVLHSQPKSTVGTPAYIAPEILLRQEYDGKLADVWSCGVTLYVMLVGAYPFEDPQEPRDYRKTIQRILSVTYSIPEDLHLSPECRHLISRIFVADPATRITIPEITSDKWFLKNLPGDLMDENRMGSQFQEPEQPMQSLDTIMQIISEATIPTVRNRCLDDFMADNLDLDDDMDDFDSESEIDVDSSGEIVYAL	–	binds
CHLH/ABAR (Mg-chelatase H subunit/putative ABA receptor), endogenous (protein, UniProt Q9FNB0 50-1381) AVSGNGLFTQTNPEVRRIVPIKRDNVPTVKIVYVVLEAQYQSSLSEAVQSLNKTSRFASYEVVGYLVEELRDKNTYNNFCEDLKDANIFIGSLIFVEELAIKVKDAVEKERDRMDAVLVFPSMPEVMRLNKLGSFSMSQLGQSKSPFFQLFKRKKQGSAGFADSMLKLVRTLPKVLKYLPSDKAQDARLYILSLQFWLGGSPDNLQNFVKMISGSYVPALKGVKIEYSDPVLFLDTGIWHPLAPTMYDDVKEYWNWYDTRRDTNDSLKRKDATVVGLVLQRSHIVTGDDSHYVAVIMELEARGAKVVPIFAGGLDFSGPVEKYFVDPVSKQPIVNSAVSLTGFALVGGPARQDHPRAIEALKKLDVPYLVAVPLVFQTTEEWLNSTLGLHPIQVALQVALPELDGAMEPIVFAGRDPRTGKSHALHKRVEQLCIRAIRWGELKRKTKAEKKLAITVFSFPPDKGNVGTAAYLNVFASIFSVLRDLKRDGYNVEGLPENAETLIEEIIHDKEAQFSSPNLNVAYKMGVREYQDLTPYANALEENWGKPPGNLNSDGENLLVYGKAYGNVFIGVQPTFGYEGDPMRLLFSKSASPHHGFAAYYSYVEKIFKADAVLHFGTHGSLEFMPGKQVGMSDACFPDSLIGNIPNVYYYAANNPSEATIAKRRSYANTISYLTPPAENAGLYKGLKQLSELISSYQSLKDTGRGPQIVSSIISTAKQCNLDKDVDLPDEGLELSPKDRDSVVGKVYSKIMEIESRLLPCGLHVIGEPPSAMEAVATLVNIAALDRPEDEISALPSILAECVGREIEDVYRGSDKGILSDVELLKEITDASRGAVSAFVEKTTNSKGQVVDVSDKLTSLLGFGINEPWVEYLSNTKFYRANRDKLRTVFGFLGECLKLVVMDNELGSLMQALEGKYVEPGPGGDPIRNPKVLPTGKNIHALDPQAIPTTAAMASAKIVVERLVERQKLENEGKYPETIALVLWGTDNIKTYGESLGQVLWMIGVRPIADTFGRVNRVEPVSLEELGRPRIDVVVNCSGVFRDLFINQMNLLDRAIKMVAELDEPVEQNFVRKHALEQAEALGIDIREAATRVFSNASGSYSANISLAVENSSWNDEKQLQDMYLSRKSFAFDSDAPGAGMAEKKQVFEMALSTAEVTFQNLDSSEISLTDVSHYFDSDPTNLVQSLRKDKKKPSSYIADTTTANAQVRTLSETVRLDARTKLLNPKWYEGMMSSGYEGVREIEKRLSNTVGWSATSGQVDNWVYEEANSTFIQDEEMLNRLMNTNPNSFRKMLQTFLEANGRGYWDTSAENIEKLKELYSQVEDKIEGIDR	–	binds
SnRK2.1 (protein, UniProt P43292 1-353) MDKYDVVKDLGAGNFGVARLLRHKDTKELVAMKYIERGRKIDENVAREIINHRSLKHPNIIRFKEVILTPTHLAIVMEYASGGELFDRICTAGRFSEAEARYFFQQLICGVDYCHSLQICHRDLKLENTLLDGSPAPLLKICDFGYSKSSILHSRPKSTVGTPAYIAPEVLSRREYDGKHADVWSCGVTLYVMLVGAYPFEDPNDPKNFRKTIQRIMAVQYKIPDYVHISQECKHLLSRIFVTNSAKRITLKEIKNHPWYLKNLPKELLESAQAAYYKRDTSFSLQSVEDIMKIVGEARNPAPSTSAVKSSGSGADEEEEEDVEAEVEEEEDDEDEYEKHVKEAQSCQESDKA	–	binds
